Measured values from paper PMC4972521.
No constants are given. Whether binding was seen depends on the method and setting. In cells and extracts the contact can be indirect. Some results given as binding are weak or reduced against the parent protein; the word gives no strength. Each block holds one molecule with its values, some of them ahead of it.

Sequences of proteins named here, by UniProt entry; tags and fusion partners are left off.
UniProt P35222: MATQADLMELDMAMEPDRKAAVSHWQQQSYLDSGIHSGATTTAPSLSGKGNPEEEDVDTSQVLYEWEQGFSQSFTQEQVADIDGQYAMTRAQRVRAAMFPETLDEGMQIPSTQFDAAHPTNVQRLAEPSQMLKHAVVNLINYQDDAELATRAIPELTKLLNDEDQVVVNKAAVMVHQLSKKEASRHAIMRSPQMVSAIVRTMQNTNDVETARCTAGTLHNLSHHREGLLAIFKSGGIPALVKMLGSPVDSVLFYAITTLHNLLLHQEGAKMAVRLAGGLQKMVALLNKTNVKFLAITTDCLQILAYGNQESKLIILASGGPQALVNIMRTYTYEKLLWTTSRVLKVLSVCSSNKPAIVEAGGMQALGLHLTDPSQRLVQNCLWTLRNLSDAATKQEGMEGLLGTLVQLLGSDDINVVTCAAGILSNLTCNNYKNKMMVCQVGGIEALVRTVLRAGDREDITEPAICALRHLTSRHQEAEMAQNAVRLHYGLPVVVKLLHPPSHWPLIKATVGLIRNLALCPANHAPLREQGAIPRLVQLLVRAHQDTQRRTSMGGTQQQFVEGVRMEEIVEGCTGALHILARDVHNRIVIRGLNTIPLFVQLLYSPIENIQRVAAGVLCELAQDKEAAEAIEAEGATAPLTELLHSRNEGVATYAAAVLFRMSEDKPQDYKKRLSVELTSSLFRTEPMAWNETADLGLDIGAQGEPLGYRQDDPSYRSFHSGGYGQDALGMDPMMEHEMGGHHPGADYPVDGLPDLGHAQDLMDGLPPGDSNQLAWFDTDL
UniProt P01106: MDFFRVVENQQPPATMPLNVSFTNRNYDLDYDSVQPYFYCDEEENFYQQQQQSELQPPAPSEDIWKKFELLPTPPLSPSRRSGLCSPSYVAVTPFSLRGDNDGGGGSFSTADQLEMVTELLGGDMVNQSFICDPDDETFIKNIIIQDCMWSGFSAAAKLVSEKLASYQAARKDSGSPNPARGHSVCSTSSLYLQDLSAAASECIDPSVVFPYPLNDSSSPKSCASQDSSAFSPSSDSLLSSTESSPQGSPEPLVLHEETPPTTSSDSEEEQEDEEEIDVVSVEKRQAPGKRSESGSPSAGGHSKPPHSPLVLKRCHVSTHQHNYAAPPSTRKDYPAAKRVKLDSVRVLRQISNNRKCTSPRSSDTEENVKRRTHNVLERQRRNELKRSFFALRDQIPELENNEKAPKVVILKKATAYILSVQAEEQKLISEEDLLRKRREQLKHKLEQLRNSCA
UniProt Q9UJU2: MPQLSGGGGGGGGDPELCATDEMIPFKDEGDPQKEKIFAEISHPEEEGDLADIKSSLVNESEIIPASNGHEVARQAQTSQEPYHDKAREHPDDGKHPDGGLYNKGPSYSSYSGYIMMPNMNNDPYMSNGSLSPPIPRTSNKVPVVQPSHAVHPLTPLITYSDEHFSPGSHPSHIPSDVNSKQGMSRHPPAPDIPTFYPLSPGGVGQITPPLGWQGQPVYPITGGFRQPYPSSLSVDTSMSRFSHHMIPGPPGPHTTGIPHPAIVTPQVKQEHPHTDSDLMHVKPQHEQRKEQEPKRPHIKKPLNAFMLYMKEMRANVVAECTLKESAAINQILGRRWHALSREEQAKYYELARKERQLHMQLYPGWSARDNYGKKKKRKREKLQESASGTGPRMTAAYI
UniProt O15169: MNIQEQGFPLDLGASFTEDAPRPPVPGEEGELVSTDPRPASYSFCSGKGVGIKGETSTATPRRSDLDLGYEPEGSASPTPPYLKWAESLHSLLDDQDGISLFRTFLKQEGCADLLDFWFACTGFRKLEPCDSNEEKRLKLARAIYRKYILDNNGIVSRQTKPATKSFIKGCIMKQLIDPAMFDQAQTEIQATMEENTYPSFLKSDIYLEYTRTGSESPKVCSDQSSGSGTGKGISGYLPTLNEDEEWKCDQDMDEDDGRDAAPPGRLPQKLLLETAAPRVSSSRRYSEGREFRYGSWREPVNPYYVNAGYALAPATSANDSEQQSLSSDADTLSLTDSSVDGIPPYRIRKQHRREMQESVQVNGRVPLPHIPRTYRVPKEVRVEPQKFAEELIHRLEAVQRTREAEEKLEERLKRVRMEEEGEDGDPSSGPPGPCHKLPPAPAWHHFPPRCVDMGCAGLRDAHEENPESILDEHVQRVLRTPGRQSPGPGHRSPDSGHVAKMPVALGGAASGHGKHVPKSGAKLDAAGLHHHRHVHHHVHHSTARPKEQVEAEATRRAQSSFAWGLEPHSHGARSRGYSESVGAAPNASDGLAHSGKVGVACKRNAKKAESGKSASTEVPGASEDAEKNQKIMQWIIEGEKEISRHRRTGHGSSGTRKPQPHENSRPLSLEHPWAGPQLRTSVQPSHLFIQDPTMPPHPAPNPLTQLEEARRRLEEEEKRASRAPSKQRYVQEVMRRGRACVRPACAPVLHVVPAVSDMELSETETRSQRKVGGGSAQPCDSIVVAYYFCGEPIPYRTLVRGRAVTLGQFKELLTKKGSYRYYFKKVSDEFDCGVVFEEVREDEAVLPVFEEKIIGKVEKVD

Tests used:
[1] = target: β-catenin (human (endogenous in AGS and MKN1)) (UniProt P35222); assay: co-IP; lysates (PBS pH 7.2, 1.0% NP-40, 0.5% sodium deoxycholate, 0.1% SDS, 4 °C) of AGS and MKN1 mock and NKX6.3 stable cells; 1.0 mg protein precipitated with 2.0 μg antibody to β-catenin or GSK3β plus protein A/G-agarose; immunoblot
[2] = target: c-Myc (human (endogenous in AGS and MKN1)) (UniProt P01106); assay: co-IP; AGS^NKX6.3 and MKN1^NKX6.3 cells (stable NKX6.3 expression); c-Myc complex; immunoblot
[3] = target: c-Myc (human (endogenous in AGS and MKN1)) (UniProt P01106); assay: co-IP; AGS^Mock and MKN1^Mock cells; c-Myc complex; immunoblot

binding [1]: binds
Molecule: LEF1 (from UniProt Q9UJU2 1-399)

binding [1]: binds
Molecule: Axin1 (from UniProt O15169 1-862)

binding [3]: binds
B1: Miz1 (protein, UniProt Q13105 1-803)
chain: MDFPQHSQHVLEQLNQQRQLGLLCDCTFVVDGVHFKAHKAVLAACSEYFKMLFVDQKDVVHLDISNAAGLGQVLEFMYTAKLSLSPENVDDVLAVATFLQMQDIITACHALKSLAEPATSPGGNAEALATEGGDKRAKEEKVATSTLSRLEQAGRSTPIGPSRDLKEERGGQAQSAASGAEQTEKADAPREPPPVELKPDPTSGMAAAEAEAALSESSEQEMEVEPARKGEEEQKEQEEQEEEGAGPAEVKEEGSQLENGEAPEENENEESAGTDSGQELGSEARGLRSGTYGDRTESKAYGSVIHKCEDCGKEFTHTGNFKRHIRIHTGEKPFSCRECSKAFSDPAACKAHEKTHSPLKPYGCEECGKSYRLISLLNLHKKRHSGEARYRCEDCGKLFTTSGNLKRHQLVHSGEKPYQCDYCGRSFSDPTSKMRHLETHDTDKEHKCPHCDKKFNQVGNLKAHLKIHIADGPLKCRECGKQFTTSGNLKRHLRIHSGEKPYVCIHCQRQFADPGALQRHVRIHTGEKPCQCVMCGKAFTQASSLIAHVRQHTGEKPYVCERCGKRFVQSSQLANHIRHHDNIRPHKCSVCSKAFVNVGDLSKHIIIHTGEKPYLCDKCGRGFNRVDNLRSHVKTVHQGKAGIKILEPEEGSEVSVVTVDDMVTLATEALAATAVTQLTVVPVGAAVTADETEVLKAEISKAVKQVQEEDPNTHILYACDSCGDKFLDANSLAQHVRIHTAQALVMFQTDADFYQQYGPGGTWPAGQVLQAGELVFRPRDGAEGQPALAETSPTAPECPPPAE
binding [2]: no binding (condition: in cells stably expressing NKX6.3)

binding [1]: binds
B2: TCF3 (protein, UniProt Q9HCS4 1-588)
chain: MPQLGGGGGGGGGGSGGGGGSSAGAAGGGDDLGANDELIPFQDEGGEEQEPSSDSASAQRDLDEVKSSLVNESENQSSSSDSEAERRPQPVRDTFQKPRDYFAEVRRPQDSAFFKGPPYPGYPFLMIPDLSSPYLSNGPLSPGGARTYLQMKWPLLDVPSSATVKDTRSPSPAHLSNKVPVVQHPHHMHPLTPLITYSNDHFSPGSPPTHLSPEIDPKTGIPRPPHPSELSPYYPLSPGAVGQIPHPLGWLVPQQGQPMYSLPPGGFRHPYPALAMNASMSSLVSSRFSPHMVAPAHPGLPTSGIPHPAIVSPIVKQEPAPPSLSPAVSVKSPVTVKKEEEKKPHVKKPLNAFMLYMKEMRAKVVAECTLKESAAINQILGRKWHNLSREEQAKYYELARKERQLHSQLYPTWSARDNYGKKKKRKREKQLSQTQSQQQVQEAEGALASKSKKPCVQYLPPEKPCDSPASSHGSMLDSPATPSAALASPAAPAATHSEQAQPLSLTTKPETRAQLALHSAAFLSAKAAASSSGQMGSQPPLLSRPLPLGSMPTALLASPPSFPATLHAHQALPVLQAQPLSLVTKSAH
